The source of these data is patent publication US20190041396A1.

Protein sequences, listed by entry. Tags and fused reporters are not part of them. Lines headed by an entry give the natural chain unless they say otherwise; changes in a name come on top.
UniProt P08887: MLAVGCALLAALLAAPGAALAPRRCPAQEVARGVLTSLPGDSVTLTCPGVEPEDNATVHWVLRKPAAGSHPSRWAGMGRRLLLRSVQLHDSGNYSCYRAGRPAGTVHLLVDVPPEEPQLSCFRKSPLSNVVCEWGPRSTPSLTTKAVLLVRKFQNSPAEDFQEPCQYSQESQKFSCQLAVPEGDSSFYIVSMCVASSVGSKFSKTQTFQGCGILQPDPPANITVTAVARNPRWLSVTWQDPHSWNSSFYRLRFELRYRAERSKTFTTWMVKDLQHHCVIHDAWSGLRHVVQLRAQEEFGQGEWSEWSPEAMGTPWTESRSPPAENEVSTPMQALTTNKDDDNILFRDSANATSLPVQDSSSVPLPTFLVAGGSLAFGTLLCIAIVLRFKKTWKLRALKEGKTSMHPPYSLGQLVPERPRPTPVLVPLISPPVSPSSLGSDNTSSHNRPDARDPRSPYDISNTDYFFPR

Residue numbers refer to the chain shown, from its start. These are yes or no findings as the source states them, for the method shown. A result given as binding can be weak or reduced; the word gives no strength.

The target in experiment [1] is soluble human IL-6 receptor (hsIL-6R) (human) (UniProt P08887). In words: SPR, Biacore T100, antibody captured on protein A/G, human IL-6 receptor as analyte, 1.2 mM against 3 µM CaCl2, pH 7.4, 37 C. On the technique in general: SPR reads the build-up and loss of mass on a sensor chip optically.
Experiment [2] shares this target. In words: SPR (Biacore T100); antibody captured on protein A/G CM5 chip, human IL-6 receptor injected for 3 min; 3 µM CaCl2, pH 7.4, 37 C.
For experiment [3] the target is unchanged. Kind of experiment: SPR (Biacore T100); antibody captured on protein A/G CM5 chip, human IL-6 receptor injected for 3 min; 1.2 mM CaCl2, pH 7.4, 37 C.
Experiment [4] has the same target. In words: SPR, Biacore T100, antibody captured on protein A/G, human IL-6 receptor as analyte, pH 7.4 against pH 6.0, 1.2 mM CaCl2, 37 C.
Experiment [5] shares this target. In words: SPR (Biacore T100); antibody (about 300 RU) captured on protein A/G CM5 chip, human IL-6 receptor injected for 3 min; pH 7.4, 1.2 mM CaCl2, 37 C.

B1: 6RC1IgG_012 antibody (antibody, V domains shown)
VH: QVQLVQSGAEVKKPGASVKVSCKASGYTFTSYGISWVRQAPGQGLEWMGWISAYNGNTNYAQKLQGRVTMTTDTSTSTAYMELRSLRSDDTAVYYCARATYYYDSSAPAFDIWGQGTMVTVSS
VL: DIQMTQSPSSLSASVGDRVTITCRASQSIEDDLAWYQQKPGKAPKLLIYEASTLQSGVPSRFSGSGSGTDFTLTISSLQPEDFATYYCQQHDDSPLTFGQGTKVEIKR
As for B1, the binding result in experiment [1], in experiment [2] and in experiment [3] was “binds” each time.

B2: 6RpH#03 antibody (antibody, human IgG1, kappa, V domains shown)
VH: EVQLVQSGGGLVQPGGSLRLSCAASGFTFSNAWMIWVRQAPGKGLEWVGRIKSKVDGGTTDYAAPVKGRFTISRDDSKNTLYLQMDSLKTEDTAVYYCVADVPASNPYGFDYWGQGTLVTVSS
VL: B1 VL with E30N, D31S, D32H, A34N, E50D, T53H, D92N, D93N, S94Y
On to B2, for which the binding entry in experiment [4] and in experiment [5] was “binds” each time.
